The values that follow come from PMC8421141.

Data set [1] concerns IHF (integration host factor). As to the kind of experiment: AFM (single-molecule imaging, bend angles). The settings on record: 1 IHF:5 bp, AFM on poly-L-lysine surface, binding buffer, recombinant protein.
The test system of data set [2] is IHF (integration host factor). As to the kind of experiment: AFM (aggregation/bridging). The note with it: 1 IHF:7 bp, large aggregates; AFM on poly-L-lysine surface; binding buffer; recombinant protein.
Data set [3] concerns IHF (integration host factor). As to the kind of experiment: AFM (clustering/bridging). The note with it: clusters from about 1 IHF:10-25 bp; AFM on poly-L-lysine surface; binding buffer; recombinant protein.

Construct, isoform or probe ends are uncertain for at least one entry. For some of these results: A weaker result is weaker than the reference pair of the same experiment.

Take “CAAGACACCGGATCTGCACAACATTGATAACGCCCAATCTTTTTGCTCAGACTCTAACTCATTGATACTCATTTATAAACTCCTTGCAATGTATGTCGTTTCAGCTAAACGGTATCAGCAATGTTTATGTAAAGAAACAGTAAGATAATACTCAACCCGATGTTTGAGTACGGTCATCATCTGACACTACAGACTCTGGCATCGCTGTGAAGACGACGCGAAATTCAGCATTTTCACAAGCGTTATCTTTTACAAAACCGATCTCACTCTCCTTTGATGCGAATGCCAGCGTCAGACATCATATGC (double strand) [1λ306]”: in data set [1] (bends 73, 107 and 147 deg), the binding result was “binds”.
Turning to “CTTTGTGCTTCTCTGGAGTGCGACAGGTTTGATGACAAAAAATTAGCGCAAGAAGACAAAAATCACCTTGCGCTAATGCTCTGTTACAGGTCACTAATACCATCTAAGTAGTTGATTCATAGTGACTGCATATGTTGTGTTTTACAGTATTATGTAGTCTGTTTTTTATGCAAAATCTAATTTAATATATTGATATTTATATCATTTTACGTTTCTCGTTCAGCTTTTTTATACTAAGTTGGCATTATAAAAAAGCATTGCTTATCAATTTGTTGCAACGAACAGGTCACTATCAGTCAAAATAAAATCATTATTTGATTTCAATTTTGTCCCACTCCCTGCC (double strand) [3λ343]”, the binding result in data set [2] is listed as “binds”.
With “GATTGCGAGGCTTTGTGCTTCTCTGGAGTGCGACAGGTTTGATGACAAAAAATTAGCGCAAGAAGACAAAAATCACCTTGCGCTAATGCTCTGTTACAGGTCACTAATACCATCTAAGTAGTTGATTCATAGTGACTGCATATGTTGTGTTTTACAGTATTATGTAGTCTGTTTTTTATGCAAAATCTAATTTAATATATTGATATTTATATCATTTTACGTTTCTCGTTCAGCTTTTTTATACTAAGTTGGCATTATAAAAAAGCATTGCTTATCAATTTGTTGCAACGAACAGGTCACTATCAGTCAAAATAAAATCATTATTTGATTTCAATTTTGTCCCACTCCCTGCCTCTGTCATCACGATACTGTGATGCCATGGTGTCCGACTTATGCCCGAGAAGATGTTGAGCAAACTTATCGCTTATCTGCTTCTCATAGAGTCTTGCAGACAAACTGCGCAACTCGTGAAAGGTAG (double strand) [3λ478]”, the binding result in data set [3] is on record as “binds”.
Consider “GCATCATCAAGTGCCGGTCGTGCAGCTTCCTCGGCAACGGCGGCAGAAAATTCTGCCAGGGCGGCAAAAACGTCCGAGACGAATGCCAGGTCATCTGAAACAGCAGCGGAACGGAGCGCCTCTGCCGCGGCAGACGCAAAAACAGCGGCGGCGGGGAGTGCGTCAACGGCATCCACGAAGGCGACAGAGGCTGCGGGAAGTGCGGTATCAGCATCGCAGAGCAAAAGTGCGGCAGAAGCGGCGGCAATACGTGCAAAAAATTCGGCAAAACGTGCAGAAGATATAGCTTCAGCTGTCGCGCTTGAGGATGCGGACACAACGAGAAAGGGGATAGTGCAGCTCAGCAGTGCAACCAACAGCA (double strand) [0λ361]”, for which the binding result in data set [1] (bends ~70 and ~110 deg, no 147 deg state) is “binds more weakly”.
